“And” between values parts separate entries of the source, which are not always exact repeats. Equal entries are not always repeated. About 5,400 (1.8%) of roughly 300,000 compounds were called active. Inconclusive results, whose numbers are uncertain, are shown with a selection of clear calls. The call rests on the fitted dose curve; tested in HEK293 cells. A potency beside an inconclusive call is a rough fit, not a confirmed value.
Test: qHTS for inhibitors of binding or entry into cells for Marburg Virus
Conditions: Marburg virus pseudotyped entry inhibition, cell reporter; activity change, negative = inhibition: at 37.8 µM (top of the series) unless noted
On the % scale 0 is the no-effect control and ±100 the full control effect; potency means the concentration at half of the fitted maximal effect.

Row | Compound | activity change, negative = inhibition | Potency
1 | O=C(NCc1ccc(C(=O)O)cc1)OCc1ccccc1 | inactive: -2.17% [at 46.1 µM] | 
2 | Cc1cc(NC(=O)CCC(=O)N(c2cccc(F)c2)C(C(=O)NC2CCCC2)c2ccc(C)o2)no1 (configuration not stated) |  | inconclusive: 25.1 µM [inhibitor, single point]
3 | Cc1ccc(OCCN2CCN(c3ncnc4sc(C)c(C)c34)CC2)cc1 |  | inconclusive: 2.31 µM [inhibitor, partial curve, poor fit]
4 | Cc1ccccc1C(=O)NC(CC(C)C)C(=O)OCc1cc(=O)n2cc(Br)ccc2n1 (configuration not stated) |  | inconclusive: 31.6 µM [inhibitor, single point]
5 | Cc1cccc(C)c1Nc1nnc(SCC(=O)c2ccc(Br)s2)s1 |  | inconclusive: 3.55 µM [inhibitor, full curve, poor fit]
6 | CN(CC(=O)O)c1ccc(C(F)(F)F)cc1[N+](=O)[O-] | inactive: 3.46% [at 46.1 µM] | 
7 | Cc1ccsc1/C=N/NC(=O)c1cccnc1 |  | inconclusive: 5.62 µM [activator, single point]
8 | COc1cc(/C=C2\C(=O)NN(c3ccc(C)cc3)C2=O)cc([N+](=O)[O-])c1O |  | inconclusive: 14.1 µM [inhibitor, single point]
9 | COC(=O)c1ccccc1NC(=O)c1ccc(COc2cc(C)cc(C)c2)o1 |  | inactive and inconclusive: 501 nM [activator, single point]
10 | COc1ccc(CCCc2nnc(SCC(=O)Nc3cc(C)ccc3C)o2)cc1 |  | inconclusive: 23.1 µM [activator, single point]
11 | Cc1ccc(NC2=NCC(=O)N2C2CCCC2)cc1C | inactive: -4.48% [at 46.1 µM] | 
12 | Cc1ccccc1N=C1Nc2ccccc2CS1 |  | inconclusive: 35.5 µM [inhibitor, single point]
13 | O=c1c(S(=O)(=O)c2ccc(Cl)cc2)cn(Cc2ccccc2)c2ccc(F)cc12 | inactive: 1.72% | 
14 | CC1CCN(CCCOc2ccc(OCc3ccccc3)cc2)CC1 |  | inconclusive: 14.1 µM [inhibitor, single point]
15 | CCOC(=O)c1ccc(NC(=O)C2(c3ccc(Cl)cc3)CCCC2)cc1 |  | inconclusive: 2 µM [inhibitor, full curve, poor fit]
16 | COC(=O)c1ccc(/C=N/N2CCN(Cc3ccccc3Cl)CC2)cc1 |  | inconclusive: 0.891 µM [inhibitor, full curve, poor fit]
17 | O=C(NCc1ccccn1)C1CCCCC1 | inactive: 4.55% [at 46.1 µM] | 
18 | CCn1c(N2CCN(S(=O)(=O)c3ccc(OC)cc3)CC2)nc2ccccc21 |  | inconclusive: 10 µM [inhibitor, partial curve, poor fit]
19 | CCOC(=O)c1cc(-c2ccc(C)cc2)n(CC(=O)Nc2ccccc2F)c1C | inactive: -11.6% [at 46.1 µM] | 
20 | Cc1c2c(nc3c(C)cccc13)OC(C)C2 (configuration not stated) | inactive: 6.28% | 
21 | Cc1ccc(O)c(N=Nc2ccc(S(=O)(=O)N3CCOCC3)cc2)c1 |  | inconclusive: 35.5 µM [activator, partial curve, poor fit]
22 | CNC(=S)N/N=C/c1ccc(C(C)C)cc1 |  | inconclusive: 14.1 µM [inhibitor, partial curve]
23 | O=C(CC1C(=O)NCCN1C/C=C/c1ccccc1)NCCc1cccnc1 (configuration not stated) | inactive: -2.7% [at 46.1 µM] | 

Quoted from the listing.
Potency with CCn1c(N2CCN(S(=O)(=O)c3ccc(OC)cc3)CC2)nc2ccccc21 reads inconclusive: 10 µM [inhibitor, partial curve, poor fit]
activity change, negative = inhibition with O=C(NCc1ccccn1)C1CCCCC1 reads inactive: 4.55% [at 46.1 µM]
activity change, negative = inhibition with O=C(NCc1ccc(C(=O)O)cc1)OCc1ccccc1 reads inactive: -2.17% [at 46.1 µM]
Potency with Cc1ccccc1N=C1Nc2ccccc2CS1 reads inconclusive: 35.5 µM [inhibitor, single point]

Later entries.

Row | Compound | activity change, negative = inhibition | Potency
24 | Cc1ccc(-c2c(C)n([O-])c3c([n+]2=O)CCCCC3)cc1 |  | inconclusive: 0.0891 µM [activator, full curve, poor fit]
25 | COc1ccc(Cl)cc1NC(=O)Cn1c(=O)n(Cc2cccs2)c(=O)c2cccnc21 |  | inconclusive: 35.5 µM [inhibitor, single point]
26 | CC(=O)Nc1ccc(-n2c(CCC(=O)O)ccc2-c2ccc(Br)cc2)cc1 | inactive: 9.3% [at 46.1 µM] | 
27 | O=C(N/N=C1\CCCc2ccccc21)c1ccc([N+](=O)[O-])cc1 | inactive: 18.2% | 
28 | COc1ccc(Nc2ccccc2NC(=O)c2ccccc2Br)cc1 |  | inconclusive: 0.562 µM [inhibitor, full curve, poor fit]
29 | O=C(Nc1ccc(CN2CCCCC2)cc1)c1cc(Br)ccc1Cl |  | inconclusive: 39.8 µM [inhibitor, partial curve, poor fit]
30 | CC(C)(C)C(=O)NC(NC(=O)C(C)(C)C)c1ccc([N+](=O)[O-])cc1 | inactive: 39.8% | 
31 | CCS(=O)(=O)c1ncc(Cl)c(C(=O)Nc2ccc(S(=O)(=O)N3CCCC(C)C3)cc2)n1 (configuration not stated) |  | inconclusive: 11.2 µM [inhibitor, partial curve, poor fit]
32 | O=C(OCC(=O)N1CCN(C(=O)c2ccco2)CC1)c1cc(-c2ccccc2)nc2ccccc12 |  | inconclusive: 35.5 µM [inhibitor, single point]
33 | Cc1cc(N2CCN(Cc3cn(C)nc3-c3ccccc3F)CC2)cc(C)n1 |  | inconclusive: 4.47 µM [inhibitor, full curve]
34 | O=C(c1ccccc1Cl)N(Cc1ccco1)c1ccccn1 | inactive: -0.768% [at 46.1 µM] | 
35 | O=C(CNc1cccc2ccccc12)N/N=C/c1ccc[nH]1 |  | inconclusive: 0.562 µM [inhibitor, full curve, poor fit]
36 | Cc1nn(C(C)C(=O)NCCCc2ccccc2)c(=O)c2nn(-c3ccccc3)c(C)c12 (configuration not stated) | inactive: -10.6% [at 46.1 µM] | 
37 | Cc1cc(-c2csc(Nc3ccccn3)n2)ccc1F |  | inconclusive: 14.1 µM [inhibitor, single point]
38 | CCOC(=O)c1c(NC(=O)C2C3C=CC(C3)C2C(=O)O)sc2c1CCC(CC)C2 (configuration not stated) |  | inconclusive: 0.355 µM [inhibitor, partial curve, poor fit]
39 | CCN(CC)C(=O)N1c2ccccc2C=Cc2ccccc21 |  | active: 1.12 µM
40 | Cc1cc(NC2CCCC2)n2nc(C)c(-c3ccccc3)c2n1 |  | inconclusive: 3.16 µM [activator, single point]
41 | Nc1ccc2nc(-c3ccccc3)cnc2c1 |  | inconclusive: 35.5 µM [inhibitor, single point]
42 | O=C(Nc1ccc(Cl)cn1)c1ccc(COc2ccccc2Br)o1 | inactive: 7.83% [at 46.1 µM] | 
43 | CCOC(=O)c1c(Nc2ccc(F)cc2)nnc(-c2ccccc2)c1-c1ccccc1 |  | inconclusive: 35.5 µM [inhibitor, single point]
44 | O=C(CNC(=O)c1ccco1)NCC(=O)OCc1ccccc1Cl |  | inconclusive: 3.98 µM [inhibitor, partial curve]
45 | O=S(=O)(c1ccc(OCC(O)CNCc2ccco2)c(Cl)c1)N1CCOCC1 (configuration not stated) |  | inconclusive: 11.2 µM [inhibitor, partial curve]
46 | Cc1cccc(Oc2cc(NC(=O)c3ccccc3)cc([N+](=O)[O-])c2)c1 |  | inconclusive: 8.91 µM [inhibitor, partial curve, poor fit]

Row | Compound | activity change, negative = inhibition | Potency
47 | CCn1c(=O)n(-c2ccc(F)cc2)c(=O)c2sc3ccccc3c21 | inactive: 3.18% [at 46.1 µM] | 
48 | O=C(O)c1ccccc1SCC(=O)N1CCc2ccccc21 |  | inconclusive: 35.5 µM [inhibitor, single point]
49 | CCOC(=O)c1ccc(NC(=S)N(CCCN2CCCC2)Cc2ccco2)cc1 |  | inconclusive: 23.1 µM [inhibitor, single point]
50 | CC(=O)Nc1cc(C(=O)OCC(=O)c2ccc(C)cc2)ccc1C |  | inconclusive: 3.55 µM [activator, partial curve]
51 | COc1ccc(CNC(=O)CN(C(=O)c2csnn2)c2ccc(C(C)=O)cc2)cc1 |  | inconclusive: 17.8 µM [activator, single point]
52 | COc1cc(C(=O)Nc2ccc(C#N)cc2)c([N+](=O)[O-])cc1OC | inactive: -21.1% [at 46.1 µM] | 
53 | CCCCCn1nc(C(=O)OCc2nnc(-c3ccccc3)o2)c2ccccc2c1=O |  | inconclusive: 2.51 µM [activator, full curve, poor fit]
54 | O=C(CN1C(=O)S/C(=C/c2ccc(N3CCOCC3)cc2)C1=O)N1CCOCC1 |  | inconclusive: 12.6 µM [activator, partial curve, poor fit]
55 | Cc1ccc(N2C(=O)N(CC(=O)Nc3ccc(F)c(F)c3)C(=O)C2C)cc1 (configuration not stated) |  | inconclusive: 17.8 µM [activator, single point]
56 | Cc1ccc(-c2csc(NC(=O)c3cccc(C)c3)c2C(=O)O)cc1 |  | inconclusive: 5.62 µM [inhibitor, full curve]
57 | Cc1ccnc(NC(=O)c2cccc(S(=O)(=O)N3CCN(c4ccc(F)cc4)CC3)c2)c1 |  | inconclusive: 6.31 µM [inhibitor, full curve, poor fit]
58 | COc1ccc(CNCC(=O)Nc2sccc2C#N)cc1 | inactive: 16.3% [at 46.1 µM] | 
59 | CC(C)c1ccccc1NC(=S)N1CCN(S(=O)(=O)c2cccs2)CC1 |  | inconclusive: 35.5 µM [inhibitor, single point]
60 | Cn1nc(C(F)(F)F)c(-c2ccc(F)cc2)c1NC(=O)c1ccco1 |  | inconclusive: 3.55 µM [activator, single point]
61 | COc1ccc(CCNC(=O)c2ccc3c(c2)N(Cc2cc(C)ccc2C)C(=O)c2ccccc2S3=O)cc1OC (configuration not stated) | inactive: -21.1% [at 46.1 µM] | 
62 | COc1ccc2oc(C)c(C(=O)Cn3ccnc3)c2c1 |  | inconclusive: 1 µM [activator, partial curve, poor fit]
63 | O=C(C[n+]1ccccc1)Nc1ccccc1Br |  | inconclusive: 17.8 µM [activator, single point]
64 | CC1CCCN(C2=C(NS(=O)(=O)c3ccc(Cl)cc3)C(=O)c3ccccc3C2=O)C1 (configuration not stated) |  | inconclusive: 3.55 µM [inhibitor, single point]
65 | O=C(CNC(=O)c1ccco1)OCc1ccc(C(=O)Oc2ccccc2)cc1 | inactive: -0.542% [at 46.1 µM] | 
66 | CC(=O)Nc1ccc(S(=O)(=O)NCCC(=O)N2CCN(C(c3ccccc3)c3ccccc3)CC2)cc1 | inactive: 5.39% | 
67 | O=[N+]([O-])c1ccccc1S(=O)(=O)Nc1ccc(-c2ccc(N3CCCC3)nn2)cc1 |  | inconclusive: 3.98 µM [activator, partial curve, poor fit]

— PubChem BioAssay AID540276 (National Center for Advancing Translational Sciences (NCATS), 2011)
